Screening data, single-dose tests

From ChEMBL document CHEMBL3988442, “University of Dundee, Small-Polar-MMV Screening Library” (2021).

Mtb glucose medium: 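Whole-cell growth test on Mycobacterium tuberculosis, read after 3 days in glucose-containing 7H9 medium; the read-out is not stated. Compounds at 50 µM. The record gives no direction; compounds that gave an IC50 in retests scored well above the rest, so higher reads as more growth inhibition. Size under these conditions: about 69,000 compounds, about 760 of them at 50% or above in at least one test.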
Mtb cholesterol medium: 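Phenotypic screen: M. tuberculosis growth, cholesterol and DPPC medium, 4 days; the read-out is not stated. Concentration: 50 µM. Higher reads as more growth inhibition (inferred: compounds with an IC50 in retests scored well above the rest). Of about 69,000 compounds tested this way, about 370 (0.54%) reached 50% or more in at least one test.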

Results are given as percent effect. The controls that fix the scale are not given in the record; negative values are as filed. The compounds are a random part of those screened. Two or more numbers in one place are separate tests of the same structure; such repeats can differ widely.

compound	Mtb glucose medium	Mtb cholesterol medium
Cc1cccc2ncn(C(C)Cn3cccn3)c(=O)c12 (stereo not given)	-13.94%	5.385%
COCCN1CCN(S(C)(=O)=O)Cc2cccnc21	-10.81%	-9.161%
COc1ccc2nnc(CCC(=O)Nc3nc4c(s3)CCCC4)n2n1	2.441%	-6.447%
O=C(CCn1cc(Cl)cn1)N1CCCC(O)(CO)CC1 (stereo not given)	9.509%	-2.57%
COc1ccccc1N1CCN(C(=O)Cn2nc(C)c(Cl)c2C)CC1	37.97%	8.219%
O=C(OCCNc1ncccn1)c1ccc(Br)s1	51.5%	36.14% and 20.95%
Cc1ccc(NC(=O)NCC2(O)CCCC2)cc1C	-2.232%	-7.142%
Cc1occc1CNC(=O)C1(C)CCCN(C(=O)c2ccccc2)C1 (stereo not given)	4.336%	13.29%
CS(=O)(=O)NC1CCCN(Cc2ccccn2)C1 (stereo not given)	-6.513%	-9.882%
Cc1cn2c(n1)CCC(NC(=O)c1c[nH]c(C)n1)C2 (stereo not given)	15.75%	9.501%
Cn1nc(C2CCNC2)c2c(C(=O)NC3CC3)cc(C3CC3)nc21 (stereo not given)	4.198%	1.805%
[H][C@]12CCN(C(=O)Nc3ccccc3C)CC[C@@]1([H])S(=O)(=O)N(CCOC)C2	5.623%	6.019%
CS(=O)(=O)c1cccc(S(=O)(=O)NC(=O)CCC2CCCCC2)c1	23.1%	19.46%
Cc1noc(C)c1CCC(=O)N1CCOCC1CCc1cnccn1 (stereo not given)	0.8396%	6.443%
COCC1CC2(CCN(C(=O)c3cnc4ccccc4c3)CC2)CO1.O=C(O)C(F)(F)F (stereo not given)	9.863% and -6.548%	-0.1599%
Cn1nc(CC(C)(C)C)cc1NC(=O)c1ccc2[nH]nnc2c1	-11.26%	-21.45%
CCn1cnnc1CN(C)Cc1nc(-c2cc(OC)ccc2F)oc1C	4.339%	-6.354%
COCc1ncn(Cc2nc(-c3ccco3)oc2C)n1	-19.61%	6.458%
Cc1ccc(S(=O)(=O)Cc2nsc(N(C)C)n2)c(C)c1	9.301% and -21.32%	-6.949%
O=C(CC1CCCO1)NCCc1ccccc1Br (stereo not given)	-18.45% and 6.786%	11.63%
CCOCCN1Cc2ncn(C)c2C(COCC2CCOCC2)C1.O=C(O)C(F)(F)F.O=C(O)C(F)(F)F (stereo not given)	18.51%	-18.63%
COc1ccc(CN2C[C@@H](CN(C)C)[C@@H](CO)C2)c(Cl)c1OC	-13.34%	-6.352%
O=C(O)C(F)(F)F.O=C(O)C(F)(F)F.O=C(O)C(F)(F)F.[H][C@@]12CCN(Cc3cccnc3)C[C@]1([H])[C@@H](CN(C)Cc1ccco1)OC2	20.74%	17.95%
N#Cc1ccc(C(=O)N(C2CC2)C2CC(=O)NC2=O)cc1 (stereo not given)	-13.2% and 2.548%	-9.955%
O=C(O)C(F)(F)F.[H][C@@]12C[C@H](C(=O)Nc3cccnc3)[C@@]([H])(CN(C(=O)NC)C1)O2	-15.27%	14.42% and -22.09%
CCN(C(=O)CN1CCC(c2ccccc2)C1)C1CC1 (stereo not given)	31.32%	-0.086%
CC1(c2ccccc2)CCCN(Cc2nnc(-c3cccnc3)o2)C1 (stereo not given)	51.81%	20.89%
Cn1ncc(C(=O)O)c1C(=O)Nc1nc2ccccc2s1	-8.018%	8.233%
COCc1noc(Cc2cc(Cl)c3c(c2)OCCCO3)n1	10.02%	2.814%
CC(=O)N1CC2(CCN(c3nccc4ccccc34)CC2)CC1C(=O)O (stereo not given)	5.855%	3.133%
Cn1ccnc1CN1CCCN(C(=O)c2cccc(CC#N)c2)CC1	-36.88%	-7.049%
CCOC(=O)NCC(=O)Nc1nc2ccccc2n1C(C)(C)C	-23.99%	-37.06%
Cc1nn(C)c(C)c1-c1cnc(CC2CCNCC2)cn1	-9.45%	-0.01068%
COc1cc(CNC(=O)Nc2nnc(C(C)C)s2)ccn1	14.66%	-11.62%
O=C(NCC(F)(F)F)C1CSCN1S(=O)(=O)c1ccccc1F (stereo not given)	4.104%	-43.99%
Cc1nn(C)c(N(C)C)c1CNCc1ccnc(N2CCCCC2)c1	-12.97%	-30.21%
COc1ccc(CC(=O)N2CCc3nnc(N(C)C)cc3C2)cc1F	-0.6836%	-22.93%
OCCN1CCc2[nH]nc(C(c3ccccc3)c3ccccc3)c2C1	-1.357%	-17.71%
c1ccc(OCCN2CCCC(c3noc(C4CC4)n3)C2)cc1 (stereo not given)	-33.53%	-9.088%
CCS(=O)(=O)c1ccc2c(c1)N1CCS(=O)(=O)N=C1O2	24.42%	0.3185%
COc1ccccc1OCC(=O)N1CCC[C@]2(C[C@@H](OC)CO2)C1	-7.941% and -34.22%	-13.83% and -10.07%
CNc1ncc(CN(C)Cc2cc(O)c3cc(F)ccc3n2)cn1	34.81%	20.1%
COC(=O)c1ccc(NC(=O)CNCc2ccco2)cc1	0.6873% and 35.08%	4.297%
CNS(=O)(=O)CCNCC1(O)CCCN(CCC2CCCCC2)C1=O (stereo not given)	14.24%	2.857% and 2.782%
COc1ccc(-c2ccc(C(=O)N3CCC[C@@H]3CO)o2)cc1	19.4%	19.87%
CCOc1ccc(NS(=O)(=O)c2cc(C)c(C(=O)O)s2)c(C)c1	-0.7357% and 11.27%	-1.568%
COc1ccccc1N1CCN(C(=O)CCCS(N)(=O)=O)C(C)C1 (stereo not given)	-0.1885% and -2.644%	12.31%
COCC[C@]1(O)CCN(Cc2nc(C)cs2)C[C@H]1C	-7.022% and -31.47%	-23.9%
COCCN1CCC2(C1)CN(c1ncc(F)cn1)C2.O=C(O)C(F)(F)F	-32.86% and 1.853%	8.071%
CNC(=O)CC1CC2(CCN(c3ncccn3)CC2)c2ccccc21.O=C(O)C(F)(F)F (stereo not given)	4.203% and 4.166%	6.93%
Cc1cc(CN2CCCC2c2noc(C3CC3)n2)c2ccccc2n1 (stereo not given)	13.51%	14.28%
CC(=O)Nc1nc(CN2CCCCC2Cn2cccn2)cs1 (stereo not given)	24.22% and -17.34%	-7.114%
O=C(O)C(F)(F)F.O=C1CCC2(CCCN(CCc3ccccc3)C2)N1Cc1cccnc1 (stereo not given)	-36.76%	-14.55%
[H][C@@]12CCN(C[C@@H]1CC)[C@@H](CNCc1ccc(OC(F)(F)F)cc1)C2	59.35% and 65.97%	59.7%
CN1CCC(N2CC[C@H](c3nc4ccc(C(F)(F)F)cc4[nH]3)C2)CC1	17.42% and 51.51%	2.64%
Cc1ccc(S(=O)(=O)N2CCC3(CC(C(=O)NCC(C)C)=NO3)C2)cc1 (stereo not given)	0.5777%	-10.43%
CCOc1cccc(CCNC(=O)Cc2cccc(O)c2)n1	27.88%	7.741%
COc1ccc(CCN2CCCC(CN(C)Cc3ccc(C)o3)C2)cc1 (stereo not given)	37.03%	32.95%
O=C(NCc1ccccn1)N1CC=C(c2ccccc2)CC1	16.27%	-16.1%
Cc1cccc(-c2noc(CN3CCOCC3C)n2)c1 (stereo not given)	6.052% and 1.968%	-10.54%
COc1cc(CCC(=O)N2CCC(c3cncc(C)n3)CC2)on1	28.45%	16.19% and 13.96%
O=C(O)C(F)(F)F.O=C(O)C(F)(F)F.O=C(O)C(F)(F)F.[H][C@@]12CCN(Cc3cnn(C)c3)[C@@]1([H])CCN2Cc1cccc(C)n1	-16.92%	-12.02%
O=C(c1c[nH]c(=O)[nH]1)N1CCc2ccccc21	-15.95%	-21.14%
Cc1nc(C2CCCN(C(=O)c3cnn(C4CCCCC4)c3)C2)no1 (stereo not given)	-0.8878%	-14.73%
O=C(NCc1nc(NC2CCCC2)c2cc(Cl)ccc2n1)c1cncs1	-2.711%	8.55%
CCc1nnc2n1CCN(C(=O)CN(CC)CC)C2	102.8%	-44.44%
CN(Cc1nc2ccccc2n1C)CC1CCCN1c1cccnn1 (stereo not given)	58.48%	33.52%
O=C(O)C(c1ccc(O)cc1)N1CCC(N2CCSCC2)CC1 (stereo not given)	4.432%	-2.712% and -8.534%
CN(C)CCCN(C)C1CCN(c2cccc(-c3cscn3)c2)CC1	48.36%	9.088%
CC(C)N1CCN(C(=O)c2ccc(Cn3ccccc3=O)o2)CC1	-22.82%	-8.862%
CSc1ccc(C(=O)N2CC(=O)N(Cc3cccs3)CC(O)C2)cc1 (stereo not given)	13.2%	-6.194%
CCCc1cc(CNC2CCN(c3nc(C)cc(C)n3)CC2)on1	9.001%	-4.583%
Cc1noc(C)c1CN(C)C(=O)NC1CCC(O)CC1 (stereo not given)	-7.986%	-6.156%
CCCn1ncc(C(=O)N2CCN([C@H]3CCCC[C@@H]3O)CC2)c1C	-1.634% and 9.401%	-9.427%
Cc1cc(-c2nccs2)nc(C2CCN(Cc3ccncc3)CC2)n1.Cl	32.18%	11.47%
Cc1noc(C2CCCN(C(=O)c3scnc3Cl)C2)n1 (stereo not given)	11.79%	3.438% and 0.8401%
Clc1ccccc1-c1nc(CNC2CCc3ncnn3C2)co1 (stereo not given)	20.51%	-3.411%
O=c1[nH]nc(CNc2ncc(Br)cn2)[nH]1	6.118%	1.082%
CCc1cccc(N2CCC(NC(=O)C3CCCO3)CC2)c1 (stereo not given)	-6.543%	9.132%
CCn1cnnc1CNC(=O)NC(c1ccc(OC)cc1)C1CC1 (stereo not given)	-15.19%	-9.671% and -3.318%
CC(C)C(C(=O)NCC1CC1)n1cnc2cc(F)c(F)cc21 (stereo not given)	-7.731%	-15.24%
Cc1nn(C)c(Cl)c1C1CCCN1CC(=O)NCc1ccco1 (stereo not given)	4.398%	-11.19%
c1ccc(Cc2noc(CN3CCOC(Cn4cccn4)C3)n2)cc1 (stereo not given)	-1.637%	-3.29%
COCCCN(C)C1CCCN(Cc2noc(C)n2)C1 (stereo not given)	10.46%	0.3106%

Repeated from the top, 10 entries:

compound,Mtb glucose medium,Mtb cholesterol medium
Cc1cccc2ncn(C(C)Cn3cccn3)c(=O)c12 (stereo not given),-13.94%,5.385%
COCCN1CCN(S(C)(=O)=O)Cc2cccnc21,-10.81%,-9.161%
COc1ccc2nnc(CCC(=O)Nc3nc4c(s3)CCCC4)n2n1,2.441%,-6.447%
O=C(CCn1cc(Cl)cn1)N1CCCC(O)(CO)CC1 (stereo not given),9.509%,-2.57%
COc1ccccc1N1CCN(C(=O)Cn2nc(C)c(Cl)c2C)CC1,37.97%,8.219%
O=C(OCCNc1ncccn1)c1ccc(Br)s1,51.5%,36.14% and 20.95%
Cc1ccc(NC(=O)NCC2(O)CCCC2)cc1C,-2.232%,-7.142%
Cc1occc1CNC(=O)C1(C)CCCN(C(=O)c2ccccc2)C1 (stereo not given),4.336%,13.29%
CS(=O)(=O)NC1CCCN(Cc2ccccn2)C1 (stereo not given),-6.513%,-9.882%
Cc1cn2c(n1)CCC(NC(=O)c1c[nH]c(C)n1)C2 (stereo not given),15.75%,9.501%